According to article PMC11260493:
These are yes or no findings as the source states them, for the method shown. In cells and extracts the contact can be indirect. Binding calls can cover weak binding; strength is not graded here.

Amino acid sequences for entries named in this document (tags omitted). A change or cut given only in a name is not applied to a line headed by its entry.
UniProt O15550: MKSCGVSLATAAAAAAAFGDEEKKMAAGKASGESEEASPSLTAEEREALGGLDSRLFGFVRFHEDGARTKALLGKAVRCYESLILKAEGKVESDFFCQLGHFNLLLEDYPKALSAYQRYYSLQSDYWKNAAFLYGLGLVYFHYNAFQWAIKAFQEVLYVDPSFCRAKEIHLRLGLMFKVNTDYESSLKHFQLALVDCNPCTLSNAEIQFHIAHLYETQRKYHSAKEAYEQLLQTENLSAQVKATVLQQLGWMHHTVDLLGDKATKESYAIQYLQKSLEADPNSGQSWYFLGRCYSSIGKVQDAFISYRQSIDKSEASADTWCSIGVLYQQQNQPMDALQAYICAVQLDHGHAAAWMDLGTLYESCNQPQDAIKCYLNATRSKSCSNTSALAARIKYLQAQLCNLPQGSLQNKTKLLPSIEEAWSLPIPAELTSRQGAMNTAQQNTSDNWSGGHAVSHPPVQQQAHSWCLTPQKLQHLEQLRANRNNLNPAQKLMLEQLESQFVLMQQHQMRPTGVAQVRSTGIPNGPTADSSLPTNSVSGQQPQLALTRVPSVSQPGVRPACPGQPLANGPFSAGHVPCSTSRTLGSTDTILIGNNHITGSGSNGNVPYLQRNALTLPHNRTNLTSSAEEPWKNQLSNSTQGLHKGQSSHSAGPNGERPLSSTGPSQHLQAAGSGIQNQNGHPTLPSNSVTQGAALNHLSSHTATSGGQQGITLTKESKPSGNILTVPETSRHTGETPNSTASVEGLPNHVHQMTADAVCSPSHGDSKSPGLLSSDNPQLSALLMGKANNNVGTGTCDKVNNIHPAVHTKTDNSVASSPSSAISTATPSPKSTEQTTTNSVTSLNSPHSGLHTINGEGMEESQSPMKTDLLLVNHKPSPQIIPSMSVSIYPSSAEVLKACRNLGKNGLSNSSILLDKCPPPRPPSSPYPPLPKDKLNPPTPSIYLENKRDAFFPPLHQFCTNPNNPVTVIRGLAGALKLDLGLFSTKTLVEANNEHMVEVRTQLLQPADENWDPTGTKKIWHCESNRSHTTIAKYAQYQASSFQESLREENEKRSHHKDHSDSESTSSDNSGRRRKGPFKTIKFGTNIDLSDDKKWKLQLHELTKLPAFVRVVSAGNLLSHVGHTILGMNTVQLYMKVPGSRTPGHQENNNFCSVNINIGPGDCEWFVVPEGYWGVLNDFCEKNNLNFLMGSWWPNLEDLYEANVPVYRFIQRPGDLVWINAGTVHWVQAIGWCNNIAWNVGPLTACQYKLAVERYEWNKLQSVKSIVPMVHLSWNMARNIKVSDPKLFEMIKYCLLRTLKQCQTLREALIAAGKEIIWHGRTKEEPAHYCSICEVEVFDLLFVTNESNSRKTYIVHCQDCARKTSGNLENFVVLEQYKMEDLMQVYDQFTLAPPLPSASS
UniProt Q7KZF4: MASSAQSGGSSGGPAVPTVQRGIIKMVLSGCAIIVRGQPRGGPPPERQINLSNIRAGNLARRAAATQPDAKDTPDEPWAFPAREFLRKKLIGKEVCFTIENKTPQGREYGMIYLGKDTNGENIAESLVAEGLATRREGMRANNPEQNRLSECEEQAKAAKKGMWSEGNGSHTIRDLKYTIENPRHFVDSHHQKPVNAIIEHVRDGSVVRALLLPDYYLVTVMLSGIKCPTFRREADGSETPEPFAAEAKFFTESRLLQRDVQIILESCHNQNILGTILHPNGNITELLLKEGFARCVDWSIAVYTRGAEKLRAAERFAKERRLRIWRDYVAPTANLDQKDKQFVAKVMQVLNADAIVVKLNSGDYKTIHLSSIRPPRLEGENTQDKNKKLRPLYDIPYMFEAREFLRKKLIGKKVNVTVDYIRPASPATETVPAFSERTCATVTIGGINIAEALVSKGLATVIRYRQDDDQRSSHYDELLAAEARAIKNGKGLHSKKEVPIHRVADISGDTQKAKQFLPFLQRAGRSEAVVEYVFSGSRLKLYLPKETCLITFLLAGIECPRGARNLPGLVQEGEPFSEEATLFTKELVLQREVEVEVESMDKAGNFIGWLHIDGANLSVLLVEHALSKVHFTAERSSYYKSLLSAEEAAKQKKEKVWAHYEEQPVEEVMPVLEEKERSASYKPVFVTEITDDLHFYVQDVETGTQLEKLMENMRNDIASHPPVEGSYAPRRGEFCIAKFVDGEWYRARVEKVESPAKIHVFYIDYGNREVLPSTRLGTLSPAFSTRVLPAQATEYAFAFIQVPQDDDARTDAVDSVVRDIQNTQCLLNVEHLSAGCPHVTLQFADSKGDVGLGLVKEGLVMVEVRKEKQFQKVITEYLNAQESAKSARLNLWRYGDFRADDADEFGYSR

Target: KDM6A N1156T (UniProt O15550)
Experiment: co-IP; Kyse150 cells co-transfected with the plasmid of SND1 and KDM6A mutants identified in ESCC patients; western blot with specific antibodies

binding: binds
Substance: SND1 (plasmid co-transfected in Kyse150 cells) (from UniProt Q7KZF4 1-910)
